The assay can be described thus: qHTS Assay for Lipid Storage Modulators in Drosophila S3 Cells.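 As to cell number change: cells counted by Cell Tracker Red CMTPX staining in the red channel.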 As to conditions: BODIPY lipid droplet fluorescence, 18-24 h; for cell number change: measured here: cell count max response, cells fed with added oleic acid. The method in brief:
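Drosophila S3 cells loaded with oleic acid (400 uM, as added) and compounds at several concentrations; lipid droplets imaged by 488-nm laser-scanning cytometry, 500–530 nm intensity and object ratio to cell channel. Percent activity normalized to 20 uM Triacsin C.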
(In general: qHTS replaces the single test concentration by a dilution series.)

Setting [1] is: measured here: lipid fluorescence (Fed channel) AC50, cells fed with added oleic acid.
Setting [2] is: measured here: cell number channel AC50, cells fed with added oleic acid.

SMILES strings stand for the structures. Some of the results follow. These are further read-outs of the screen, such as a control signal, another cell line or another target. No call is given for them. The list favours compounds with an active or inconclusive main result. Words in brackets tell the shape of the fitted curve; partial curves, single points and poor fits give uncertain potencies.

59 compounds from PubChem BioAssay AID2685 (National Center for Advancing Translational Sciences (NCATS), 2010) can be followed below.

Regarding `CCc1ccc(NC(=O)Cc2cn(C)c3ccccc23)cc1`, the cell number change came out at 0.913%. Broadly, the AC50 is the concentration giving half of the maximal activity seen. A low value points to activity at low concentration. For the compound `CN(C)C(CNC(=O)C1CCN(S(=O)(=O)c2cccc(Cl)c2Cl)CC1)c1ccccc1` (stereo not given), the cell number change was 27%. Moreover, the AC50 under setting [1] was 14.6 µM [rising, partial curve].

`COc1cc(CNCc2ccc(OC)c3ccccc23)cc(OC)c1OC`: the cell number change was -40.7%. The AC50 under setting [2] is 16.4 µM [falling, single point]. Regarding `CCN(C(=O)CSc1nnc(Cc2ccccc2F)n1N)C1CCS(=O)(=O)C1` (stereo not given), the AC50 under setting [1] was 6.51 µM [falling, partial curve]. As to `Clc1nssc1=Nc1nncs1`, the cell number change is -84.6%. Under setting [2], the AC50 was 5.17 µM [falling, single point]. Also, under setting [1], the AC50 was 20.6 µM [falling, single point]. With `Cc1cc(N2C(=O)C3C4C=CC(C4)C3C2=O)ccc1NC(=O)c1cccs1` (stereo not given), the cell number change was -4.94%. Besides, under setting [1], the AC50 is 4.11 µM [rising, single point]. In the case of `COc1c(OC(C)=O)ccc(/C=C/c2ccc3ccccc3n2)c1[N+](=O)[O-]`, the cell number change is -18.8%. On to `CC(C)CCC1(CCNC(C)c2cccs2)CCOC(C)(C)C1` (stereo not given), for which the cell number change was -16.3%. Also, the AC50 under setting [1] was 0.146 µM [falling, full curve, poor fit]. `COc1cc2cc(Oc3ccc4ccc(=O)oc4c3)c(=O)oc2cc1OC(=O)C=C(C)C`: the cell number change was 10.5%. In addition, the AC50 under setting [1] is 1.64 µM [rising, partial curve, poor fit]. Consider `COc1cc(/C=N/NC(=O)c2cccnc2)ccc1OS(=O)(=O)c1ccc(F)cc1`, for which the AC50 was 0.461 µM [rising, full curve] under setting [2] and 0.731 µM [rising, full curve] under setting [1]. `O=C(Nc1ccncc1)c1ccc2c(c1)C(=O)N(C1CCCCC1)C2=O`: the cell number change was -51.7%. For the same compound, the AC50 under setting [2] is 0.092 µM [falling, full curve, poor fit]. Besides, under setting [1], the half-maximal activity concentration (AC50) was 0.13 µM [falling, full curve, poor fit].

As for `COc1cc(C2/C(=C(\O)c3ccc4c(c3)OCCO4)C(=O)C(=O)N2c2nnc(C)s2)cc(OC)c1OC` (stereo not given), the cell number change amounted to 11.3%. Also, the AC50 under setting [1] was 23.1 µM [rising, single point]. Take `CC(C)(C)C(=O)/C=c1\s/c(=C\c2ccc(-c3ccc([N+](=O)[O-])cc3)o2)c(=O)n1CC(=O)NC(N)=O`: the AC50 under setting [1] was 2.06 µM [falling, full curve, poor fit].

`COc1ccc(NC(=O)Cn2nc(C)c3ccccc3c2=O)cc1`: the cell number change amounted to 9.82%. Regarding `Cc1ccc(C)c(OCC(=O)N2CCOCC2)c1`, the cell number change was 15.2%. Under setting [1], the AC50 was 29.1 µM [rising, single point]. Turning to `CCCCC(CC)C(=O)Nc1cc(C(=O)NCCC)ccc1N1CCC2(CC1)CC(c1cccc(Br)c1)=NO2` (stereo not given), the cell number change was -8.2%. Besides, under setting [1], the concentration at half-maximal activity (AC50) was 29.1 µM [rising, single point]. For `CC(C)CNC(=O)c1ccccc1NC(=O)CCSc1ccccc1`, the cell number change came to 4.87%. For the same compound, the AC50 under setting [1] was 4.61 µM [rising, partial curve]. As to `COCCn1ccc2c(OCC(=O)NCCc3ccc(OC)c(OC)c3)cccc2c1=O`, the cell number change was -1.6%. Further, the AC50 under setting [1] is 6.51 µM [rising, single point]. For `CCO[C@@H]1OC(C(=O)N2CCN(Cc3ccccc3)CC2)=C[C@H](c2cn(C(C)=O)c3ccccc23)[C@H]1CCCO`, the cell number change was -16.3%. The AC50 under setting [1] was 0.651 µM [falling, single point]. Regarding `CC(=O)c1ccc(NC(=O)c2ccc3nc(C)sc3c2)cc1`, the cell number change was 2.93%. Consider `Cc1noc(C)c1S(=O)(=O)N1CCCCC1`, for which, under setting [1], the AC50 is 1.3 µM [rising, full curve, poor fit]. Take `O=c1c2cnn(-c3ccc(F)cc3)c2ncn1Cc1ccccn1`: the cell number change was 86.4%. Under setting [2], the AC50 is 7.31 µM [rising, partial curve]. Under setting [1], the AC50 was 5.17 µM [rising, partial curve]. As to `CCc1nnc(NC(=O)c2cccc(S(=O)(=O)N3CCN(C(C)=O)CC3)c2)s1`, the cell number change stood at 13.3%. In addition, under setting [1], the AC50 is 0.366 µM [rising, partial curve, poor fit]. Regarding `O=C(C1Cc2ccccc2CN1S(=O)(=O)c1ccc(F)cc1)N1CCCCC1` (stereo not given), the cell number change was determined as 7.61%. The half-maximal activity concentration (AC50) under setting [1] was 14.6 µM [rising, single point]. For the compound `Cc1ccc(NC(=O)C2CC(=O)N(Cc3ccccc3)C2)nc1` (stereo not given), the cell number change came out at 14.1%. Regarding `Cc1nc(C(=O)NCc2ccccc2)sc1C1(C)CC(c2cccc([N+](=O)[O-])c2)=NO1` (stereo not given), the cell number change came out at 4.01%. On to `COc1ccc(-c2nnc(SCC(=O)N(C)C3CCS(=O)(=O)C3)n2N)cc1OC` (stereo not given), for which the cell number change is -24.3%. For the same compound, the AC50 under setting [1] is 25.9 µM [falling, single point].

Regarding `COc1ccc(N2CCN(c3nc4ccccc4n3CC(=O)c3ccccc3)CC2)cc1`, the cell number change is -0.559%. Moreover, the AC50 under setting [1] is 2.31 µM [rising, single point].

As for `O=C(Nc1ccc(F)c(Cl)c1)Nc1cnccn1`, the cell number change was -7.75%. For the same compound, the AC50 under setting [1] was 3.26 µM [falling, single point]. On to `Nc1ccn([C@@H]2O[C@H](CO)[C@@H](O)[C@@H]2O)c(=O)n1`, for which the cell number change is 33.8%. For the same compound, under setting [2], the AC50 was 0.82 µM [rising, full curve, poor fit]. The AC50 under setting [1] is 0.651 µM [rising, full curve, poor fit]. For the compound `Cc1ccc(-c2nc(C(=O)NCCCN3CCOCC3)cc3c2[nH]c2ccccc23)cc1`, the cell number change was -12.4%. Besides, the AC50 under setting [1] is 14.6 µM [falling, partial curve, poor fit]. Regarding `O=S(=O)(c1ccc(=S)[nH]c1)N1CCCCCC1`, the cell number change is -7.16%. Further, the AC50 under setting [1] is 29.1 µM [rising, single point].

Take `COc1ccc(S(=O)(=O)N(CCc2ccccc2)CC(=O)N/N=C/c2ccc3c(c2)OCO3)cc1`: under setting [2], the AC50 was 0.411 µM [falling, single point]. As to `COC(=O)c1c(C(=O)NCc2ccccc2)ncn1CC(O)COc1ccccc1` (stereo not given), the cell number change is -0.97%.

As to `O=C1c2ccccc2S(=O)(=O)N1CC1CC(c2ccc(Cl)cc2)=NO1` (stereo not given), the cell number change amounted to 32.7%. For the same compound, under setting [2], the AC50 is 14.6 µM [rising, single point]. Besides, under setting [1], the AC50 is 18.4 µM [rising, partial curve]. For the compound `COc1ccc(C(=O)NNC(=O)Cn2nnc(-c3ccc(OC)c(OC)c3)n2)cc1`, the cell number change was -55.4%. Also, the AC50 under setting [2] is 0.231 µM [falling, full curve]. Under setting [1], the AC50 was 0.184 µM [falling, full curve]. As to `CCn1c(SCC(=O)C(C)(C)C)nnc1-c1ccccc1OC`, the cell number change came out at 9.01%. In addition, the AC50 under setting [1] was 4.61 µM [falling, single point]. On to `Cc1ccc(S(=O)(=O)NC(=O)NCCCCNC(=O)NS(=O)(=O)c2ccc(C)cc2)cc1`, for which the cell number change worked out at 18.1%. The AC50 under setting [1] was 0.259 µM [rising, partial curve]. `O=c1nc(Nc2ccccc2)oc2ccccc12`: under setting [2], the half-maximal activity concentration (AC50) was 0.461 µM [rising, single point]. As for `COc1c2ccoc2c(OC[C@@H](O)C(C)(C)O)c2oc(=O)ccc12`, the cell number change turned out to be 6.66%. Also, under setting [1], the AC50 is 0.82 µM [rising, partial curve, poor fit].

In the case of `CN(CC(=O)NCCCc1ccccc1)S(=O)(=O)c1ccc(Br)cc1`, the cell number change is -5.77%. Further, under setting [1], the AC50 is 5.8 µM [falling, partial curve, poor fit]. As for `CCOc1ccccc1NC(=O)NNS(=O)(=O)c1ccc([N+](=O)[O-])cc1`, the cell number change is -1.98%. Further, the AC50 under setting [1] was 29.1 µM [rising, single point]. In the case of `COc1ccccc1OCc1csc(NC(=O)c2ccco2)n1`, the cell number change is 7.45%. Moreover, the AC50 under setting [2] was 2.91 µM [rising, single point]. The AC50 under setting [1] is 6.51 µM [rising, single point]. Consider `CN(C(=O)c1cccc(C#N)c1)c1nnc(-c2ccccn2)s1`, for which the cell number change came out at 28.2%. Further, the AC50 under setting [1] is 0.00517 µM [rising, full curve, poor fit]. On to `CC(=O)N1N=C(c2c(-c3ccccc3)c3cc(Br)ccc3[nH]c2=O)CC1c1ccco1` (stereo not given), for which the cell number change is 13.3%. Under setting [1], the AC50 was 0.92 µM [rising, full curve, poor fit]. As for `O=c1[nH][nH]c(-c2ccccc2O)c1C(C[N+](=O)[O-])c1cccc(Cl)c1` (stereo not given), the cell number change worked out at 33.3%. Besides, under setting [2], the AC50 was 4.11 µM [rising, full curve, poor fit]. With `C/C(=N/OCC(=O)Nc1ccc(C)cc1C)c1cccs1`, the cell number change came to 39.3%. Under setting [2], the AC50 is 0.291 µM [rising, full curve, poor fit]. In the case of `Cc1cc(=O)n2nc(-c3ccc(C(F)(F)F)cc3)sc2n1`, the cell number change was determined as 31.4%. Further, the AC50 under setting [2] was 2.06 µM [rising, full curve]. For the same compound, the AC50 under setting [1] is 0.0651 µM [rising, full curve, poor fit].

For `Cc1[nH][nH]c(=O)c1C(c1ccc(-c2ccc(F)cc2)o1)c1c(C)[nH][nH]c1=O`, the cell number change is -20.5%. Moreover, the AC50 under setting [1] was 1.3 µM [falling, full curve]. As to `CC(C)c1ccc2c(c1)C1Cc3ccccc3C1N2` (stereo not given), the AC50 under setting [1] was 2.31 µM [falling, partial curve, poor fit]. On to `CCOc1ccc(S(=O)(=O)N2CCC(C(=O)N3CCc4ccccc4C3)CC2)cc1`, for which, under setting [1], the AC50 is 29.1 µM [falling, single point]. In the case of `Cc1cc(C)n2nc(SCC(=O)c3c(N)n(CC(C)C)c(=O)n(C)c3=O)nc2n1`, the cell number change stood at 0.137%.

Take `CCN1c2ccccc2-c2nc3ccccc3n2C1c1cccnc1` (stereo not given): the cell number change came to 11.6%. The AC50 under setting [1] is 0.0731 µM [rising, full curve, poor fit]. For the compound `CCOC(=O)C1CCN(S(=O)(=O)c2c(C)[nH]c(C)c2C(=O)N2CCCCC2)CC1`, the AC50 under setting [2] was 0.13 µM [rising, full curve, poor fit]. Consider `COc1ccc(C(C)NC(=O)c2ccc(Br)cc2)cc1OC` (stereo not given), for which the cell number change amounted to 61.5%. Under setting [2], the AC50 is 14.6 µM [rising, partial curve, poor fit]. For the same compound, under setting [1], the AC50 was 29.1 µM [rising, single point]. With `O=C(NCc1ccccc1)c1ccc2c(c1)OCCO2`, the cell number change was -0.771%.

Take `CCSc1ccccc1C(=O)NCCc1ccccc1`: the cell number change was determined as 4.14%.

As to `CC(Cc1ccccn1)NC(=O)c1ccc(OC2CCN(Cc3ccccn3)CC2)cc1` (stereo not given), the cell number change is -15.4%. In addition, the AC50 under setting [1] is 32.6 µM [falling, partial curve, poor fit]. Take `NC(N)=N/N=C/c1cccc(Cl)c1Cl`: the cell number change was 61.8%. Moreover, the AC50 under setting [2] is 20.6 µM [rising, single point]. Besides, the AC50 under setting [1] was 0.731 µM [rising, single point].
